Data reported in PubChem BioAssay AID248 (DTP/NCI, 2004).
The list is a part of this screen's results and no random one: it gathers tests that were run many times, whatever their T/C, doses with no T/C, and many T/C values between a quarter and a half above the control. Other doses and runs of a compound stand elsewhere. T/C: endpoint of the treated group in % of that of the vehicle group. Some doses have a count of surviving animals in place of a T/C: the source holds a T/C of zero for them, seemingly a mark for toxic or unscored doses. Some survivor counts are full or nearly so, which does not show that the dose was tolerated: survival well below the control is almost never listed, so the zero probably covers shortened survival too. Counts of survivors are from the toxicity check (mostly the fifth day) where no day follows; animals may have died later. Schedule codes are those of the source, taken here to give the interval after Q, in days (D) or hours (H), and the number of doses after X. Marks such as (2×) stand for listed records that agree. Some doses were run more than once; their values stand side by side, smallest first. For survival time, the PubChem record calls one and a half times the control and up active, and a quarter to a half above the control has no call in these data; cut-offs in other NCI protocols can differ. Some T/C values are followed by the survivors on the day toxicity was checked, most often the fifth; without a count, all were alive then. Some schedule codes hold Z or #, which are not explained here.

System: L1210 leukemia ip in BDF1 mice, survival T/C
Assay: NCI In Vivo Anticancer Drug Screen. Data for tumor model L1210 Leukemia (intraperitoneal) in B6D2F1 (BDF1) mice
Settings: T/C endpoint: median survival time, higher T/C = longer survival

`COc1cccc2c1C(=O)c1c(O)c3c(c(O)c1C2=O)C[C@@](O)(C(=O)CO)C[C@@H]3OC1CC(N)C(O)C(C)O1` (some centres undefined) was tested, and the survivor count (dose: 3.0 mg/kg/injection, schedule: Q03HX024 (ip), vehicle: water) was 4 of 8, the T/C (dose: 3.0 mg/kg/injection, schedule: Q04DX003 (ip), vehicle: water, evaluated on day 5) was 94, 108, 136, 148 % of control and the T/C (dose: 3.0 mg/kg/injection, schedule: Q04DX003 (ip), vehicle: water, evaluated on day 7) was 98, 104, 105, 109 % of control. For the same compound, the T/C (dose: 3.0 mg/kg/injection, schedule: Q04DX003 (ip), vehicle: water, evaluated on day 24) was 111 % of control, the T/C (dose: 3.0 mg/kg/injection, schedule: Q04DX003 (ip), vehicle: water, evaluated on day 31) was 104 % of control and the T/C (dose: 3.0 mg/kg/injection, schedule: Q04DX003 (ip), vehicle: water, evaluated on day 40) was 105 % of control. The T/C (dose: 3.0 mg/kg/injection, schedule: Q04DX003 (ip), vehicle: water, evaluated on day 60) was 94, 98 [7 of 8 alive], 109, 110, 118, 130, 136, 148 % of control, the T/C (dose: 3.0 mg/kg/injection, schedule: Q04DX003 (ip), vehicle: water, evaluated on day 90) was 138 % of control and the T/C (dose: 3.9 mg/kg/injection, schedule: Q04DX003 (ip), vehicle: water) was 127 % of control. The T/C (dose: 4.0 mg/kg/injection, schedule: Q01DX001 (ip), vehicle: saline, evaluated on day 5) was 125, 126 (2×), 135, 136, 138, 166 % of control, the T/C (dose: 4.0 mg/kg/injection, schedule: Q01DX001 (ip), vehicle: saline, evaluated on day 30) was 135 % of control and the T/C (dose: 4.0 mg/kg/injection, schedule: Q01DX001 (ip), vehicle: saline, evaluated on day 60) was 126, 126 [9 of 10 alive], 136, 138, 142 % of control. The T/C (dose: 4.0 mg/kg/injection, schedule: Q01DX001 (ip), vehicle: water, evaluated on day 5) was 114 and 127 % of control, the T/C (dose: 4.0 mg/kg/injection, schedule: Q01DX001 (ip), vehicle: water, evaluated on day 21) was 127 % of control and the T/C (dose: 4.0 mg/kg/injection, schedule: Q01DX001 (ip), vehicle: water, evaluated on day 30) was 116 % of control [7 of 8 alive]. The survivor count (dose: 4.0 mg/kg/injection, schedule: Q01DX009 (ip), vehicle: water) was 9 of 10, the survivor count (dose: 4.0 mg/kg/injection, schedule: Q03HX008 (ip), vehicle: water) was 1 of 10 and 3 of 8 and the T/C (dose: 4.0 mg/kg/injection, schedule: Q04DX003 (ip), vehicle: water, evaluated on day 5) was 132 % of control. The T/C (dose: 4.0 mg/kg/injection, schedule: Q04DX003 (ip), vehicle: water, evaluated on day 30) was 132 and 139 % of control, the T/C (dose: 4.0 mg/kg/injection, schedule: Q## X001 (ip), vehicle: saline) was 125 % of control and the T/C (dose: 4.0 mg/kg/injection, schedule: Q##DX001 (ip), vehicle: saline) was 142 % of control. The T/C (dose: 5.0 mg/kg/injection, schedule: Q01DX001 (ip), vehicle: water, evaluated on day 5) was 124, 133, 151 % of control, the T/C (dose: 5.0 mg/kg/injection, schedule: Q01DX001 (ip), vehicle: water, evaluated on day 7) was 115 % of control (2×) and the T/C (dose: 5.0 mg/kg/injection, schedule: Q01DX001 (ip), vehicle: water, evaluated on day 24) was 116 and 122 % of control. The T/C (dose: 5.0 mg/kg/injection, schedule: Q01DX001 (ip), vehicle: water, evaluated on day 30) was 125, 130, 133 % of control, the T/C (dose: 5.0 mg/kg/injection, schedule: Q01DX001 (ip), vehicle: water, evaluated on day 33) was 116 % of control and the T/C (dose: 5.0 mg/kg/injection, schedule: Q01DX001 (ip), vehicle: water, evaluated on day 46) was 122 % of control. The T/C (dose: 5.0 mg/kg/injection, schedule: Q01DX001 (ip), vehicle: water, evaluated on day 60) was 104 and 109 % of control, the T/C (dose: 5.0 mg/kg/injection, schedule: Q01DX001 (ip), vehicle: water, evaluated on day 61) was 126 % of control and the survivor count (dose: 5.0 mg/kg/injection, schedule: Q01DX005 (ip), vehicle: water) was 8 of 8. The survivor count (dose: 5.0 mg/kg/injection, schedule: Q01DX005 (sc), vehicle: water) was 8 of 8, the T/C (dose: 5.0 mg/kg/injection, schedule: Q03HX008 (ip), vehicle: water, evaluated on day 7) was 94, 95, 110 % of control and the T/C (dose: 5.0 mg/kg/injection, schedule: Q03HX008 (ip), vehicle: water, evaluated on day 20) was 94 % of control [7 of 8 alive]. The T/C (dose: 5.0 mg/kg/injection, schedule: Q03HX008 (ip), vehicle: water, evaluated on day 32) was 95 % of control, the T/C (dose: 5.0 mg/kg/injection, schedule: Q03HX008 (ip), vehicle: water, evaluated on day 60) was 110 % of control and the survivor count (dose: 5.0 mg/kg/injection, schedule: Q03HX024 (ip), vehicle: water) was 8 of 8. For the same compound, the T/C (dose: 5.0 mg/kg/injection, schedule: Q04DX003 (ip), vehicle: water, evaluated on day 5) was 94, 109, 138, 160 % of control, the T/C (dose: 5.0 mg/kg/injection, schedule: Q04DX003 (ip), vehicle: water, evaluated on day 7) was 111, 112, 113, 114 % of control and the T/C (dose: 5.0 mg/kg/injection, schedule: Q04DX003 (ip), vehicle: water, evaluated on day 24) was 116 % of control. For the same compound, the T/C (dose: 5.0 mg/kg/injection, schedule: Q04DX003 (ip), vehicle: water, evaluated on day 31) was 112 % of control, the T/C (dose: 5.0 mg/kg/injection, schedule: Q04DX003 (ip), vehicle: water, evaluated on day 40) was 114 % of control and the T/C (dose: 5.0 mg/kg/injection, schedule: Q04DX003 (ip), vehicle: water, evaluated on day 46) was 161 % of control. For the same compound, the T/C (dose: 5.0 mg/kg/injection, schedule: Q04DX003 (ip), vehicle: water, evaluated on day 60) was 95, 100 [7 of 8 alive], 109 (2×), 111, 135, 136 % of control, the T/C (dose: 5.0 mg/kg/injection, schedule: Q04DX003 (ip), vehicle: water, evaluated on day 61) was 131 % of control and the T/C (dose: 5.0 mg/kg/injection, schedule: Q04DX003 (ip), vehicle: water, evaluated on day 90) was 155 % of control. The T/C (dose: 5.0 mg/kg/injection, schedule: Q08DX002 (ip), vehicle: water, evaluated on day 30) was 148 % of control, the T/C (dose: 5.0 mg/kg/injection, schedule: Q08DX002 (ip), vehicle: water, evaluated on day 60) was 113 and 118 % of control and the T/C (dose: 5.0 mg/kg/injection, schedule: Q08DX002 (ip), vehicle: water, evaluated on day 61) was 126 % of control. The T/C (dose: 5.9 mg/kg/injection, schedule: Q01DX001 (ip), vehicle: water) was 127 % of control, the T/C (dose: 6.0 mg/kg/injection, schedule: Q03HX008 (ip), vehicle: water, evaluated on day 5) was 42 and 53 % of control and the T/C (dose: 6.0 mg/kg/injection, schedule: Q03HX008 (ip), vehicle: water, evaluated on day 7) was 86 % of control. The T/C (dose: 6.0 mg/kg/injection, schedule: Q03HX008 (ip), vehicle: water, evaluated on day 30) was 86 % of control, the survivor count (dose: 6.0 mg/kg/injection, schedule: Q03HX008 (ip), vehicle: water) was 0 of 8 (2×) and the T/C (dose: 8.0 mg/kg/injection, schedule: Q01DX001 (ip), vehicle: saline, evaluated on day 5) was 139, 149, 151, 155, 160, 166, 226 % of control.
